Data taken from publication PMC10915996.
No constants are given. Whether binding was seen depends on the method and setting. Binding seen in cells or lysates may run through a third protein. A result given as binding can be weak or reduced; the word gives no strength.

Sequences of proteins named here, by UniProt entry; tags and fusion partners are left off. A change or cut given only in a name is not applied to a line headed by its entry. A line that says so, or that is headed by a name, gives the form on record, which may keep a tag or linker.
ubiquitin-specific protease 10 (USP10), HA-tagged (Q14694-3, form named): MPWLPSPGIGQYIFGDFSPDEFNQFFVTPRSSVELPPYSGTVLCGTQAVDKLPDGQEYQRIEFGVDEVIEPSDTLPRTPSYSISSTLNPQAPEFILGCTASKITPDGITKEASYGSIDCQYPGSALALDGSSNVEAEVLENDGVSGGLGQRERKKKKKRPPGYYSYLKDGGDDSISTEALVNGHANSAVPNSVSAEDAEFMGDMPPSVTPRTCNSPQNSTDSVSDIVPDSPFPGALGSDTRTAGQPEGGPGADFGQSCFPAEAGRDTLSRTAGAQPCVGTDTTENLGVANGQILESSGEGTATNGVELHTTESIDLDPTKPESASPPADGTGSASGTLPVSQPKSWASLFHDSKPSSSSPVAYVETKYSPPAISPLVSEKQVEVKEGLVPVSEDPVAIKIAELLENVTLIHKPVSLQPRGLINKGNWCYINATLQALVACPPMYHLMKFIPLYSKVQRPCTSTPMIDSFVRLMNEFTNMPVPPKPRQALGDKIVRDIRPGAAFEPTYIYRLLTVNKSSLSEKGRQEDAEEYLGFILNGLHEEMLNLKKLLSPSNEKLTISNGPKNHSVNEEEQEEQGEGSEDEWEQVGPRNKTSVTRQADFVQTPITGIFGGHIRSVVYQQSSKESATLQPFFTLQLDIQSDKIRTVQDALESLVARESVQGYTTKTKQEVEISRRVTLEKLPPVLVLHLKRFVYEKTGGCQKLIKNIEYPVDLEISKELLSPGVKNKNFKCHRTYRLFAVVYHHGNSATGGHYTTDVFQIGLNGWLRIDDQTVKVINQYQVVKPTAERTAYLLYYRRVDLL
UniProt P56817: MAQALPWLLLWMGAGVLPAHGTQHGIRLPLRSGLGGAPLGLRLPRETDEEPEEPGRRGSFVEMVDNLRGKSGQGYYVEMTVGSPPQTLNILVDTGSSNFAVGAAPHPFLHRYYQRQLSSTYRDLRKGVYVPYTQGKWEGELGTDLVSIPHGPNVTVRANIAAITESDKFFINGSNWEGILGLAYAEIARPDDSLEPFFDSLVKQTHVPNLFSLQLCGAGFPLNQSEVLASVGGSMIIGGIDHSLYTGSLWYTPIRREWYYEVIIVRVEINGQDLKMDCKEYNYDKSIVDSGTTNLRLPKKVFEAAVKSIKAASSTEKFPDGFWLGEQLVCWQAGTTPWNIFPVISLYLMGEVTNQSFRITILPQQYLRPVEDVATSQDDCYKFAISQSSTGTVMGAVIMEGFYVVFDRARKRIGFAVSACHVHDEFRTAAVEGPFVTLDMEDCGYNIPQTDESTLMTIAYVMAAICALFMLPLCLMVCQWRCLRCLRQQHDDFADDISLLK

What was measured:
[1] = target: ubiquitin-specific protease 10 (USP10), HA-tagged (UniProt Q14694); assay: co-IP; HEK 293T cells cotransfected with Flag-BACE1 and HA-USP10 for 48 hours; precipitated with anti-HA magnetic beads; western blotting with Flag rabbit polyclonal antibody
[2] = target: β-site amyloid precursor protein-cleaving enzyme 1 (BACE1), Flag-tagged (UniProt P56817); assay: co-IP; HEK 293T cells cotransfected with Flag-BACE1 and HA-USP10 for 48 hours; precipitated with anti-Flag magnetic beads; detected with HA rabbit polyclonal antibody

Substance | binding [1] | binding [2]
β-site amyloid precursor protein-cleaving enzyme 1 (BACE1), Flag-tagged (from UniProt P56817) | binds | 
ubiquitin-specific protease 10 (USP10), HA-tagged (from UniProt Q14694-3 1-802) (enzyme) |  | binds
